According to PubChem BioAssay AID2813 (NMMLSC, 2010):
The whole screen tested about 1,300 compounds, of which about 20 (2%) were called active. Cut-off read from the data, not from the text of the source: active = inhibition above about 40%; inactive = the rest. This is a selection; strong and weak results do not stand in their true shares.

Sequences of proteins named here, by UniProt entry; tags and fusion partners are left off.
UniProt P13612, whole entry, looked up: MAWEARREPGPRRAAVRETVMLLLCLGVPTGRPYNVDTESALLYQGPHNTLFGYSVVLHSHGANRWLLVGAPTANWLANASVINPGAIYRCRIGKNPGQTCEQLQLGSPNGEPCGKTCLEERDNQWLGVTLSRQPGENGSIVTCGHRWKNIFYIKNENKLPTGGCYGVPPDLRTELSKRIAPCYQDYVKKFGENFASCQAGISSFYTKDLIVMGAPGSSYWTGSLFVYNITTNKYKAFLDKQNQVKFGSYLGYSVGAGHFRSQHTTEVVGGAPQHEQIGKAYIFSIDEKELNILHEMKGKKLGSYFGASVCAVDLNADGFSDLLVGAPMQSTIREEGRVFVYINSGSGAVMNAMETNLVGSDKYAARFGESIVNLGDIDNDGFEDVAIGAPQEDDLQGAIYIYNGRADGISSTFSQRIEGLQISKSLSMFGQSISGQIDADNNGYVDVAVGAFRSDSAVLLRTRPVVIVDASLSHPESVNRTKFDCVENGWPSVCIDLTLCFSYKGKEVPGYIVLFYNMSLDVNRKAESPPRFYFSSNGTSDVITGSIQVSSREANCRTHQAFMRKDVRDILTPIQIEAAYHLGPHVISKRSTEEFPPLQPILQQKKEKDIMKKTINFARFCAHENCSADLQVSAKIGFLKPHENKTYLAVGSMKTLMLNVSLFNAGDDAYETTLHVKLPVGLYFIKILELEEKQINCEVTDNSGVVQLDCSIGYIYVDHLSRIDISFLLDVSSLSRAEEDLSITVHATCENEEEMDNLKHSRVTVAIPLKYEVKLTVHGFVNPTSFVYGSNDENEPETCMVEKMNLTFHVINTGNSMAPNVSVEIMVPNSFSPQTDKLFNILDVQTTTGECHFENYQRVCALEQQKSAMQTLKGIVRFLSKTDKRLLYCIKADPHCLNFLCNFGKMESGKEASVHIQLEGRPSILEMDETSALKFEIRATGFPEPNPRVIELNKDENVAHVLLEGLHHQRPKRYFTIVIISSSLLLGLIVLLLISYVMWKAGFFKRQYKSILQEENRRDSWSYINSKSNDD

Molecular target: Integrin alpha-4 (Homo sapiens) (UniProt P13612)
Assay: retest of VLA-4 allosteric modulators, confirmation, cell-based, cherry-picked plates, U937, HUTS-21 LIBS antibody (AID 2813);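 note: 0% = ligand without compound and 100% = no ligand background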
Details: U937 cells, HUTS-21 LIBS mAb binding, flow cytometry; at 6.7 µM; hits give high values

Structure (SMILES) | inhibition
O=c1c2ccccc2nc(-c2ccc(Cl)cc2Cl)n1-c1ccncc1 | inactive: 0%
